Measurements published in PMC10164564.

Chains of the proteins cited; added tags and fusions are not shown.
UniProt Q9Y3B2: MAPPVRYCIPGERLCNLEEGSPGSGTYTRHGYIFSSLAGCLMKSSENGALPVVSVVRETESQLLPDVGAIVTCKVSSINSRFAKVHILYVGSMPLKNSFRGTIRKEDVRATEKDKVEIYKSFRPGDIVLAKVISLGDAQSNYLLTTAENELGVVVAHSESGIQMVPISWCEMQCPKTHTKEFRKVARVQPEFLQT
UniProt Q13868: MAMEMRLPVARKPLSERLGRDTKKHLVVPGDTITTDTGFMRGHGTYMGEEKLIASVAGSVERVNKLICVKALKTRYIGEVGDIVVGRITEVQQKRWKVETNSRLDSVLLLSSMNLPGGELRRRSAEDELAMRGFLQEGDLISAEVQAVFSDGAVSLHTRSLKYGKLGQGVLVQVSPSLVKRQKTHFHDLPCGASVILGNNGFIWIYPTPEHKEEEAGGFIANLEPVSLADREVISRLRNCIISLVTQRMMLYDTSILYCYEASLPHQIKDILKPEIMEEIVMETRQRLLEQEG
UniProt Q9NQT4: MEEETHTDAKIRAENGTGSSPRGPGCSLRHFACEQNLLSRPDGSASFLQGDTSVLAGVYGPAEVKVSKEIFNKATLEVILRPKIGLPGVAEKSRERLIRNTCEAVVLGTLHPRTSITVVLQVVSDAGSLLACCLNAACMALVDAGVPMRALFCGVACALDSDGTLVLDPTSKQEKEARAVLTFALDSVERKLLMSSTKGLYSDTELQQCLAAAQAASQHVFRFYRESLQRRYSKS
UniProt Q5RKV6: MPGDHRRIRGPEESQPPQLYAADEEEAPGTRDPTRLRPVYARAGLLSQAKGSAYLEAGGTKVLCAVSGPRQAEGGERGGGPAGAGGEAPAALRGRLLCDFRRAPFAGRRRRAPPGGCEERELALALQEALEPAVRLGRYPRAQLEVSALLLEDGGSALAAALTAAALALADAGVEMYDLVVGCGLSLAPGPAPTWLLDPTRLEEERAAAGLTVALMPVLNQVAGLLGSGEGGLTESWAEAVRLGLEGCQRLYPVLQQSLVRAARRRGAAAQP
UniProt Q15024: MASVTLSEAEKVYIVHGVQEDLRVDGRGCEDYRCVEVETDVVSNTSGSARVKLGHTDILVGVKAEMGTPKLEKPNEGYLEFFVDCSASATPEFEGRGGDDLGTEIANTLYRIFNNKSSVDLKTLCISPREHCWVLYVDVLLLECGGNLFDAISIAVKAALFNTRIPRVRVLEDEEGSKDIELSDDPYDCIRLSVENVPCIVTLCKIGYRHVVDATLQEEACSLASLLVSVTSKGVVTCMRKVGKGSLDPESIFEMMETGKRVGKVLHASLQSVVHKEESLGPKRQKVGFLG
UniProt Q06265: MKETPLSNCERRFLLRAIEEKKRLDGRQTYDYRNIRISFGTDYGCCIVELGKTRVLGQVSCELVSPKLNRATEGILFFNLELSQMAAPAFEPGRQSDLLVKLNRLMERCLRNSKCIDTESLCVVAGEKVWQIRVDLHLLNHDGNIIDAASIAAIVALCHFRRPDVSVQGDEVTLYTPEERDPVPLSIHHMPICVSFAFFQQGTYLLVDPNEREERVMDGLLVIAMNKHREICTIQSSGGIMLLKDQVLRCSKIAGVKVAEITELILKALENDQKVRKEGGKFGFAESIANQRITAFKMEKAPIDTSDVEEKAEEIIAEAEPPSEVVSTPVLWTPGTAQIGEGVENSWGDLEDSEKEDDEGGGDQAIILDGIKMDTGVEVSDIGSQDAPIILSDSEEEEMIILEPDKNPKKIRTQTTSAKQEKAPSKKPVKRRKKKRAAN

T1: Flag-tagged full-length USP36 (wild type) (human) (UniProt Q9P275)
T1 sequence: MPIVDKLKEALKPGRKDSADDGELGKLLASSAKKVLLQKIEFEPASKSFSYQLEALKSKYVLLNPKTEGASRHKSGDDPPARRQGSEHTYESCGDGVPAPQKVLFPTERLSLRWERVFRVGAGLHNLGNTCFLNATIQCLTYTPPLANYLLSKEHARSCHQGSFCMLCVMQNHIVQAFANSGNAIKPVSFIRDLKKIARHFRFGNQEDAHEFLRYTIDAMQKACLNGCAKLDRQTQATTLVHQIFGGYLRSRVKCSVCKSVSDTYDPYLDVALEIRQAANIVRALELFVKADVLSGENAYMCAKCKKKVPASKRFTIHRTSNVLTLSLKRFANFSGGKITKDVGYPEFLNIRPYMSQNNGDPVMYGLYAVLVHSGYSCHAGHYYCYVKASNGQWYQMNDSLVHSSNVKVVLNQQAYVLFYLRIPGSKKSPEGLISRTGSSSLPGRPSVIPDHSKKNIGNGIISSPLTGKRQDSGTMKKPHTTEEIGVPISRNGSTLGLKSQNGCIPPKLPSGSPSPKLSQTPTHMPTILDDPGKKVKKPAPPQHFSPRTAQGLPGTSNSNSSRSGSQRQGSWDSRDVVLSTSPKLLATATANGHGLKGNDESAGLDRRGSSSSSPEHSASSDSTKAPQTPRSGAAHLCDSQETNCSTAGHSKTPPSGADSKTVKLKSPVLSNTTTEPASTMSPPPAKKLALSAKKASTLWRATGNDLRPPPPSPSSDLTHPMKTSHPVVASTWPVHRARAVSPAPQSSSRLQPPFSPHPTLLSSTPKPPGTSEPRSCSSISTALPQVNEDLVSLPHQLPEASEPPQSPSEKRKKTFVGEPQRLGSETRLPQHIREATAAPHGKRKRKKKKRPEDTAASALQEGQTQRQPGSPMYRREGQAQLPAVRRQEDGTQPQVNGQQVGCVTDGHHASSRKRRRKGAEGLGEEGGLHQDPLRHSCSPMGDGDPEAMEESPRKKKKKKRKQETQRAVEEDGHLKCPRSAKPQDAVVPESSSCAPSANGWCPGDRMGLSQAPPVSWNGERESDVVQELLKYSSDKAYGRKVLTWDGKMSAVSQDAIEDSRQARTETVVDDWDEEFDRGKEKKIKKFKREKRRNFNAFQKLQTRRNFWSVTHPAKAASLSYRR

B1: Dis3 (enzyme, UniProt Q9Y2L1 1-958)
chain: MLKSKTFLKKTRAGGVMKIVREHYLRDDIGCGAPGCAACGGAHEGPALEPQPQDPASSVCPQPHYLLPDTNVLLHQIDVLEDPAIRNVIVLQTVLQEVRNRSAPVYKRIRDVTNNQEKHFYTFTNEHHRETYVEQEQGENANDRNDRAIRVAAKWYNEHLKKMSADNQLQVIFITNDRRNKEKAIEEGIPAFTCEEYVKSLTANPELIDRLACLSEEGNEIESGKIIFSEHLPLSKLQQGIKSGTYLQGTFRASRENYLEATVWIHGDNEENKEIILQGLKHLNRAVHEDIVAVELLPKSQWVAPSSVVLHDEGQNEEDVEKEEETERMLKTAVSEKMLKPTGRVVGIIKRNWRPYCGMLSKSDIKESRRHLFTPADKRIPRIRIETRQASTLEGRRIIVAIDGWPRNSRYPNGHFVRNLGDVGEKETETEVLLLEHDVPHQPFSQAVLSFLPKMPWSITEKDMKNREDLRHLCICSVDPPGCTDIDDALHCRELENGNLEVGVHIADVSHFIRPGNALDQESARRGTTVYLCEKRIDMVPELLSSNLCSLKCDVDRLAFSCIWEMNHNAEILKTKFTKSVINSKASLTYAEAQLRIDSANMNDDITTSLRGLNKLAKILKKRRIEKGALTLSSPEVRFHMDSETHDPIDLQTKELRETNSMVEEFMLLANISVAKKIHEEFSEHALLRKHPAPPPSNYEILVKAARSRNLEIKTDTAKSLAESLDQAESPTFPYLNTLLRILATRCMMQAVYFCSGMDNDFHHYGLASPIYTHFTSPIRRYADVIVHRLLAVAIGADCTYPELTDKHKLADICKNLNFRHKMAQYAQRASVAFHTQLFFKSKGIVSEEAYILFVRKNAIVVLIPKYGLEGTVFFEEKDKPNPQLIYDDEIPSLKIEDTVFHVFDKVKVKIMLDSSNLQHQKIRMSLVEPQIPGISIPTDTSNMDLNGPKKKKMKLGK
B2: endogenous EXOSC10 (enzyme, UniProt Q01780 1-885)
chain: MAPPSTREPRVLSATSATKSDGEMVLPGFPDADSFVKFALGSVVAVTKASGGLPQFGDEYDFYRSFPGFQAFCETQGDRLLQCMSRVMQYHGCRSNIKDRSKVTELEDKFDLLVDANDVILERVGILLDEASGVNKNQQPVLPAGLQVPKTVVSSWNRKAAEYGKKAKSETFRLLHAKNIIRPQLKFREKIDNSNTPFLPKIFIKPNAQKPLPQALSKERRERPQDRPEDLDVPPALADFIHQQRTQQVEQDMFAHPYQYELNHFTPADAVLQKPQPQLYRPIEETPCHFISSLDELVELNEKLLNCQEFAVDLEHHSYRSFLGLTCLMQISTRTEDFIIDTLELRSDMYILNESLTDPAIVKVFHGADSDIEWLQKDFGLYVVNMFDTHQAARLLNLGRHSLDHLLKLYCNVDSNKQYQLADWRIRPLPEEMLSYARDDTHYLLYIYDKMRLEMWERGNGQPVQLQVVWQRSRDICLKKFIKPIFTDESYLELYRKQKKHLNTQQLTAFQLLFAWRDKTARREDESYGYVLPNHMMLKIAEELPKEPQGIIACCNPVPPLVRQQINEMHLLIQQAREMPLLKSEVAAGVKKSGPLPSAERLENVLFGPHDCSHAPPDGYPIIPTSGSVPVQKQASLFPDEKEDNLLGTTCLIATAVITLFNEPSAEDSKKGPLTVAQKKAQNIMESFENPFRMFLPSLGHRAPVSQAAKFDPSTKIYEISNRWKLAQVQVQKDSKEAVKKKAAEQTAAREQAKEACKAAAEQAISVRQQVVLENAAKKRERATSDPRTTEQKQEKKRLKISKKPKDPEPPEKEFTPYDYSQSDFKAFAGNSKSKVSSQFDPNKQTPSGKKCIAAKKIKQSVGNKSMSFPTGKSDRGFRYNWPQR
B3: UTP18 (protein, UniProt Q9Y5J1 1-556)
chain: MPPERRRRMKLDRRTGAKPKRKPGMRPDWKAGAGPGGPPQKPAPSSQRKPPARPSAAAAAIAVAAAEEERRLRQRNRLRLEEDKPAVERCLEELVFGDVENDEDALLRRLRGPRVQEHEDSGDSEVENEAKGNFPPQKKPVWVDEEDEDEEMVDMMNNRFRKDMMKNASESKLSKDNLKKRLKEEFQHAMGGVPAWAETTKRKTSSDDESEEDEDDLLQRTGNFISTSTSLPRGILKMKNCQHANAERPTVARISSVQFHPGAQIVMVAGLDNAVSLFQVDGKTNPKIQSIYLERFPIFKACFSANGEEVLATSTHSKVLYVYDMLAGKLIPVHQVRGLKEKIVRSFEVSPDGSFLLINGIAGYLHLLAMKTKELIGSMKINGRVAASTFSSDSKKVYASSGDGEVYVWDVNSRKCLNRFVDEGSLYGLSIATSRNGQYVACGSNCGVVNIYNQDSCLQETNPKPIKAIMNLVTGVTSLTFNPTTEILAIASEKMKEAVRLVHLPSCTVFSNFPVIKNKNISHVHTMDFSPRSGYFALGNEKGKALMYRLHHYSDF

target: T1, Flag-tagged full-length USP36 (wild type) (human); assay: affinity purification with mass spectrometry; 293 cells stably expressing Flag-USP36 or control; NP-40 lysis buffer; anti-Flag (M2) agarose, 4°C 4 h; elution with Flag peptides; MS/MS

| binding | Molecule |
| --- | --- |
| binds | EXOSC1 (from UniProt Q9Y3B2 1-195) |
| binds | EXOSC2 (from UniProt Q13868 1-293) |
| binds | EXOSC5 (from UniProt Q9NQT4 1-235) |
| binds | EXOSC6 (from UniProt Q5RKV6 1-272) |
| binds | EXOSC7 (from UniProt Q15024 1-291) |
| binds | EXOSC9 (from UniProt Q06265 1-439) |
| no binding | B1 |
| binds | B2 |
| binds | B3 |

These are yes or no findings as the source states them, for the method shown. In cells and extracts the contact can be indirect. Here binding means that the protein was enriched with, or labelled near, the bait; the list need not be complete. A no says only that the protein was not detected with the bait. Tags and fused reporters may be left off the sequences shown.
